# Source: PubChem BioAssay AID1259354 (Paczesny and Yang Labs, IUPUI and University of Michigan, 2018)
# Protein sequences, listed by entry. Tags and fused reporters are not part of them. Lines headed by an entry give the natural chain unless they say otherwise; changes in a name come on top.
# UniProt Q01638: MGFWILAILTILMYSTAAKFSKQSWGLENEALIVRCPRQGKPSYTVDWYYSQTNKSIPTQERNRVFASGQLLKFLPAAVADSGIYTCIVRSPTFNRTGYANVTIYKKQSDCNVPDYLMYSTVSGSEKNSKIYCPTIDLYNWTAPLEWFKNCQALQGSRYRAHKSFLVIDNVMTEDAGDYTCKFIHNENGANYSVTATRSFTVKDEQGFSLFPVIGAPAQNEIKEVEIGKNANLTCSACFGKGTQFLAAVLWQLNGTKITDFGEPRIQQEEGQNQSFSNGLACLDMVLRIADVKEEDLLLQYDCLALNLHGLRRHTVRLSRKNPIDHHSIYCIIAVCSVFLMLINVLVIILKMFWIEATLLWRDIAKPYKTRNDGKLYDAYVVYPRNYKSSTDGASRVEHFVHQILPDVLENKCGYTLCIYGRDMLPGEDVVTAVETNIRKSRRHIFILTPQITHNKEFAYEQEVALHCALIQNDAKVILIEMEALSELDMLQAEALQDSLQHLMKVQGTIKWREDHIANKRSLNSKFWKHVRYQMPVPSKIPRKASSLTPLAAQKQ
# Hit rate of the full screen: of about 78,000 compounds, about 1,800 (2.3%) were called active. This list was built around the results that the source calls inconclusive (neither active nor inactive); the mix of calls is not that of the screen. Cut-off read from the data, not from the text of the source: active = inhibition above about 30%; inconclusive = mostly about 10% to 28%; inactive = weaker than that.
# Molecular target: Interleukin-1 receptor-like 1 (Homo sapiens) (UniProt Q01638)
# Test: blocks human ST2 binding to IL-33, primary screen, biochemical, AlphaLISA (AID 1259354)
# Details: AlphaLISA ST2-Fc/biotin-IL-33 interaction, 1 h; at 17 µM, hits give high values
row,Compound,inhibition
1,COc1ccc(CC(=O)NC2CC(=O)N(CC3CCCCC3)C2)cc1 (stereo unspecified),inconclusive: 10%
2,CN1C[C@@H](NS(=O)(=O)c2ccc(F)cc2)C[C@H]1c1nc(-c2cccnc2)no1,inconclusive: 12%
3,CC(C)c1ccc(-c2nc(N3CCCCC3)nc3n[nH]c(N)c23)cc1,inactive
4,COC(=O)C[C@@H]1C(C(=O)O)=CO[C@@H](O[C@@H]2O[C@H](CO)[C@@H](O)[C@H](O)[C@H]2O)/C1=C\COC(=O)/C=C/c1ccccc1,inconclusive: 14%
5,CCOc1ccc(NC(N)=Nc2nc(C)c(C)c(=O)[nH]2)cc1,inactive
6,COc1ccc(C2=NN(CC(=O)NCc3cccnc3)C(=O)CC2)cc1,inactive
7,CN1C[C@H](NS(=O)(=O)c2ccc(-c3cnco3)s2)C[C@H]1CO,inconclusive: 10%
8,Cn1c(=O)c2c(nc(NCc3cccnc3)n2Cc2cccc3ccccc23)n(C)c1=O,active: 30%
9,Cc1c(C(=O)NCCCN2CCCC2=O)oc2ccc(S(=O)(=O)N3CCOCC3)cc12,inconclusive: 11%
10,CCN(Cc1ccc(S(C)(=O)=O)cc1)Cc1cc(Cl)ccc1OC,inconclusive: 18%
11,COc1cc(NC(=O)C2Cc3ccccc3CN2S(C)(=O)=O)cc(OC)c1 (stereo unspecified),inconclusive: 19%
12,CCN(Cc1noc(CC(C)C)n1)C(=O)CC1CNCCO1 (stereo unspecified),inconclusive: 23%
13,CC(C)NC(=O)CNC(C)COc1ccccc1 (stereo unspecified),inconclusive: 17%
14,Cn1c2c(c(=O)[nH]c1=O)C(c1ccc([N+](=O)[O-])o1)C1=C(N2)c2ccccc2C1=O (stereo unspecified),inactive
15,Cc1nnc([C@H]2CCN(C(=O)C3CC3)C2)o1,inactive
16,Cc1csc(CNC(=O)c2sc3ncnc(N4CCCCCCC4)c3c2C)n1,inconclusive: 10%
17,CCOc1ccc(/C=C2\N=C(c3cccc([N+](=O)[O-])c3)OC2=O)cc1,inactive
18,CCCOc1ccc(C2C(C(=O)Nc3ccccc3OC)=C(C)Nc3nnnn32)cc1 (stereo unspecified),inconclusive: 10%
19,CC(=O)c1ccc(N=c2oc3cc(O)ccc3cc2C(N)=O)cc1,inconclusive: 25%
20,Cc1[nH]ncc1C(=O)N1CCOC(Cc2cccc(C(F)(F)F)c2)C1 (stereo unspecified),inconclusive: 16%
21,CSc1ccc(C(Nc2ccccn2)c2ccc3ccc(C)nc3c2O)cc1 (stereo unspecified),inconclusive: 26%
22,COc1ccc(CC(=O)Nc2cccc(Cl)c2C)cc1,inconclusive: 15%
23,O=C(NCCCc1ccccn1)c1ccc(-c2cccnc2)nc1,inconclusive: 13%

# 13 compounds already listed, arranged by molecular weight, rising.
row,Compound,inhibition
15,Cc1nnc([C@H]2CCN(C(=O)C3CC3)C2)o1,inactive
13,CC(C)NC(=O)CNC(C)COc1ccccc1 (stereo unspecified),inconclusive: 17%
12,CCN(Cc1noc(CC(C)C)n1)C(=O)CC1CNCCO1 (stereo unspecified),inconclusive: 23%
17,CCOc1ccc(/C=C2\N=C(c3cccc([N+](=O)[O-])c3)OC2=O)cc1,inactive
6,COc1ccc(C2=NN(CC(=O)NCc3cccnc3)C(=O)CC2)cc1,inactive
20,Cc1[nH]ncc1C(=O)N1CCOC(Cc2cccc(C(F)(F)F)c2)C1 (stereo unspecified),inconclusive: 16%
10,CCN(Cc1ccc(S(C)(=O)=O)cc1)Cc1cc(Cl)ccc1OC,inconclusive: 18%
11,COc1cc(NC(=O)C2Cc3ccccc3CN2S(C)(=O)=O)cc(OC)c1 (stereo unspecified),inconclusive: 19%
14,Cn1c2c(c(=O)[nH]c1=O)C(c1ccc([N+](=O)[O-])o1)C1=C(N2)c2ccccc2C1=O (stereo unspecified),inactive
2,CN1C[C@@H](NS(=O)(=O)c2ccc(F)cc2)C[C@H]1c1nc(-c2cccnc2)no1,inconclusive: 12%
16,Cc1csc(CNC(=O)c2sc3ncnc(N4CCCCCCC4)c3c2C)n1,inconclusive: 10%
18,CCCOc1ccc(C2C(C(=O)Nc3ccccc3OC)=C(C)Nc3nnnn32)cc1 (stereo unspecified),inconclusive: 10%
9,Cc1c(C(=O)NCCCN2CCCC2=O)oc2ccc(S(=O)(=O)N3CCOCC3)cc12,inconclusive: 11%

# Following part

row,Compound,inhibition
1,CC(=O)c1ccc(NC(=O)O[C@@H]2CO[C@H]3[C@@H]2OC[C@@H]3NS(=O)(=O)c2ccccc2C#N)cc1,inconclusive: 25%
2,COc1ccc2nc(Nc3nc4ccc(NC(C)=O)cc4s3)sc2c1,inconclusive: 10%
3,N#Cc1cc2c(nc1SCc1ccccc1F)CCC2,inactive
4,CCOc1ccc2nc(NC(=O)CCCc3nc4cccnc4n3Cc3ccc(F)cc3)sc2c1,inconclusive: 21%
5,CCOc1ccc(NC(=O)c2cc3cc4cc(OC)ccc4nc3s2)cc1,inconclusive: 15%
6,Cc1ncc(C(=O)NCCCc2c(C)n[nH]c2C)c(C)n1,inconclusive: 13%
7,COc1ccc(NC(=O)CN(c2cccc(Cl)c2Cl)S(C)(=O)=O)cc1OC,inconclusive: 17%
8,COc1ccc2nc(NC(=O)CCCc3nc4cccnc4n3Cc3ccc(F)cc3)sc2c1,inconclusive: 11%
9,Cc1ccc2c(c1)c1c(n2CCN2C(=O)c3ccccc3C2=O)C(=O)CCC1,inactive
10,CC(=O)NCCn1cnc(-c2ccccc2)c1/C(C)=C/c1ccco1,inconclusive: 15%
11,COc1cc2c(cc1CN1CCC(N3CCCC3=O)CC1)OCO2,inconclusive: 18%
12,C=CCn1c(CNC(=O)c2cc(OC)c(OC)c(OC)c2)nc2ccccc21,inconclusive: 18%
13,O=C(CN1C(=O)/C(=C/c2ccccc2F)Sc2ccccc21)N1CCCCC1,active: 39%
14,COc1ccc(C2C(C(=O)NCc3ccco3)c3cc(OC)c(OC)cc3C(=O)N2C)cc1 (stereo unspecified),inactive
15,CCOc1ccc(Br)cc1S(=O)(=O)N1CCN(c2nc(C)cc(N3CCOCC3)n2)CC1,inconclusive: 13%
16,Cc1nn(C(=O)COc2ccccc2)c(C)c1Sc1ccc([N+](=O)[O-])cc1,inconclusive: 26%
17,Fc1ccccc1Nc1nc2nonc2nc1N1CCN(Cc2ccccc2)CC1,inconclusive: 15%
18,Cc1nc(N(CCC(=O)O)CCC(=O)O)sc1C(C)(C)C,inactive
19,O=C(Nc1cccc(F)c1)c1ccccc1Br,inactive
20,O=C1OCC(=O)N(Cc2ccccc2Cl)C1c1ccc(F)cc1 (stereo unspecified),inactive
21,O=C(NC(Nc1cccc([N+](=O)[O-])c1)C(Cl)(Cl)Cl)c1ccc(Br)cc1 (stereo unspecified),inactive
22,CCC(=O)N1N=C(c2ccccc2)CC1Cc1cc2cccc(C)c2[nH]c1=O (stereo unspecified),inactive
23,CCOc1ccc(/C=C2\N=C(c3cc([N+](=O)[O-])cc([N+](=O)[O-])c3)OC2=O)cc1,active: 40%
